Data source: PubChem BioAssay AID1159578 (Peter MacCallum Cancer Centre, 2015)
This is an unselected part of about 18,000 deposited reagents. About 1,030 of all reagents (5.7%) count as active. 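Inactive calls also include pools with fewer than 3300 nuclei, whose migration was not assessed.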 Raw values are not corrected between plates. Further read-outs or replicates are left out here.

Aim: 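Genome-wide hunt for genes controlling movement of lymphatic endothelial cells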 (primary screen)
Cells: human lymphatic endothelial cells
Knock-down reagent: siRNA pool against human genes, 40 nM
Timing: 48 h after transfection
Read-out: 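High-content imaging of dye-stained cells in a scratch assay measures filled wound area and nuclei per well; duplicate means given as ratio to mock and robust z-score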
Reading the numbers: migration robust z-score: higher = faster migration into the scratch; nuclei per well: higher = more cells in the well
Rule for the call: 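Migration changed when robust z exceeds 2 or falls below -2 and mean nuclei number is at least 3300; otherwise not called changed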
Calls: active = migration changed; inactive = no migration change, or too few cells

{"target gene": "RSL24D1 (GeneID 51187)", "PubChem SID": "SID255357546", "migration robust z-score": -0.12, "migration class with cell-count check": "migration z between -2 and 2; enough cells", "nuclei per well, duplicate mean": 4288, "activity call": "inactive"}
{"target gene": "RNF135 (GeneID 84282)", "PubChem SID": "SID255361297", "migration robust z-score": -1.74, "migration class with cell-count check": "migration z between -2 and 2; enough cells", "nuclei per well, duplicate mean": 4618, "activity call": "inactive"}
{"target gene": "CSNK2A2 (GeneID 1459)", "PubChem SID": "SID255349132", "migration robust z-score": -1.79, "migration class with cell-count check": "migration z between -2 and 2; enough cells", "nuclei per well, duplicate mean": 5512, "activity call": "inactive"}
{"target gene": "HMGCLL1 (GeneID 54511)", "PubChem SID": "SID255358054", "migration robust z-score": 0.64, "migration class with cell-count check": "migration z between -2 and 2; enough cells", "nuclei per well, duplicate mean": 6169, "activity call": "inactive"}
{"target gene": "CCT2 (GeneID 10576)", "PubChem SID": "SID255355195", "migration robust z-score": 0.18, "migration class with cell-count check": "migration z between -2 and 2; enough cells", "nuclei per well, duplicate mean": 4730, "activity call": "inactive"}
{"target gene": "RTL5 (GeneID 340526)", "PubChem SID": "SID255365089", "migration robust z-score": 1.5, "migration class with cell-count check": "migration z between -2 and 2; enough cells", "nuclei per well, duplicate mean": 6668, "activity call": "inactive"}
{"target gene": "CPT1C (GeneID 126129)", "PubChem SID": "SID255362686", "migration robust z-score": 1.38, "migration class with cell-count check": "migration z between -2 and 2; enough cells", "nuclei per well, duplicate mean": 5413, "activity call": "inactive"}
{"target gene": "RBM19 (GeneID 9904)", "PubChem SID": "SID255354652", "migration robust z-score": -0.36, "migration class with cell-count check": "migration z between -2 and 2; enough cells", "nuclei per well, duplicate mean": 6793, "activity call": "inactive"}
{"target gene": "TAS2R3 (GeneID 50831)", "PubChem SID": "SID255357366", "migration robust z-score": 0.74, "migration class with cell-count check": "migration z between -2 and 2; enough cells", "nuclei per well, duplicate mean": 6968, "activity call": "inactive"}
{"target gene": "MPRIP (GeneID 23164)", "PubChem SID": "SID255356034", "migration robust z-score": -0.03, "migration class with cell-count check": "migration z between -2 and 2; enough cells", "nuclei per well, duplicate mean": 6048, "activity call": "inactive"}
{"target gene": "CCL24 (GeneID 6369)", "PubChem SID": "SID255352338", "migration robust z-score": -1.06, "migration class with cell-count check": "migration z between -2 and 2; enough cells", "nuclei per well, duplicate mean": 4764, "activity call": "inactive"}
{"target gene": "STARD7-AS1 (GeneID 285033)", "PubChem SID": "SID255364821", "migration robust z-score": -1.45, "migration class with cell-count check": "migration z between -2 and 2; enough cells", "nuclei per well, duplicate mean": 4942, "activity call": "inactive"}
